Measurements: publication PMC10290130, “The potential of phenothiazinium dyes as cytotoxicity markers in cisplatin-treated cells” (Scientific Reports, 2023)

Assays:
Vero cells [1] = assay: Sensitivity assay for the detection of phenothiazinium dyes in cells; type: cell-based, African green monkey; settings: for minimum limit for detection of dye in cells (detected in concentrations above): 3 h incubation, 96-well monolayer
Vero cells [2] = assay: Visible spectra of cell extracts, area under the spectral curve (intracellular dye); settings: 380-800 nm
Vero cells [3] = assay: Light microscopy of phenothiazinium dye accumulation in cells; type: cell-based, African green monkey; settings: 3 h, light microscope; for pattern of dye accumulation in cells: 100-12.5 µM
Description: The accumulation of phenothiazine dyes in cells was detected by light and confocal microscopies. Firstly, Vero cells were incubated with MB, NMB, TBO, and DMMB (100, 50, 25 and 12.5 µM) for 3 h, 37 °C, 5% CO2 and washed with PBS. […] For confocal detection of phenothiazinium dyes, Vero cell cultures were incubated with 10 μM of MB, NMB, TBO or DMMB for 30 min, 37 °C, with 5% CO2. For all procedures, non-treated controls were incubated with RPMI under the same conditions. The cultures were washed with PBS and treated with trypsin for 10 min, 37 °C and 5% CO2. The cells were transferred to slides and analyzed by confocal microscopy with excitation/emission wavelengths of 543/600 nm, respectively.

[4] = dye at 100 µM, calculated using the linear regression equation

`Cc1cc(N(C)C)cc2[s+]c3cc(N(C)C)cc(C)c3nc12.[Cl-]` [DMMB, 3,7-bis(dimethylamino)-1,9-dimethylphenothiazin-5-ium chloride] was tested, and the “minimum limit for detection of dye in cells (detected in concentrations above)” value (“minimum limit for detection of dye” for short) (Vero cells [1]) was > 7.8 µM, the “absorbance of extracted dye” value (Vero cells [1]; [4]) was 0.50 and the “absorbance of extracted dye” value (Vero cells [1]; dye at 125 µM, 3 h) was 0.53. For the same molecule, the “area under the absorbance curve of cell extract” value (shortened to “area under the absorbance curve”) (Vero cells [2]; 1 h, dye 100 µM (NR 173 µM)) was 13.3, the “area under the absorbance curve” value (Vero cells [2]; 2 h, dye 100 µM) was 17.7 and the “area under the absorbance curve” value (Vero cells [2]; 3 h, dye 100 µM) was 19.6. For the same molecule, the “area under the absorbance curve” value (Vero cells [2]; 4 h, dye 100 µM (NR 173 µM)) was 21.9, the “pattern of dye accumulation in cells” value (Vero cells [3]) was “stained uniformly” and the “localisation of dye in cells” value (Vero cells [3]) was “found in the cell cytoplasm”.

`CN(C)c1ccc2nc3ccc(N(C)C)cc3[s+]c2c1.[Cl-]` [MB, 3,7-bis[dimethylamino]phenothiazin-5-ium chloride] was tested, and the “absorbance of extracted dye” value (Vero cells [1]; [4]) was 0.34, the “area under the absorbance curve” value (Vero cells [2]; 1 h, dye 100 µM (NR 173 µM)) was 8.25 and the “area under the absorbance curve” value (Vero cells [2]; 2 h, dye 100 µM) was 9.84. The “area under the absorbance curve” value (Vero cells [2]; 3 h, dye 100 µM) was 10.38, the “area under the absorbance curve” value (Vero cells [2]; 4 h, dye 100 µM (NR 173 µM)) was 12.10 and the “pattern of dye accumulation in cells” value (Vero cells [3]) was “heterogeneous accumulation pattern”.

With `CCNc1cc2[s+]c3cc(NCC)c(C)cc3nc2cc1C.[Cl-]` [NMB, 3,7-bis(ethylamino)-2,8-dimethylphenothiazin-5-ium chloride] the “minimum limit for detection of dye” value (Vero cells [1]) was > 7.8 µM, the “absorbance of extracted dye” value (Vero cells [1]; [4]) was 0.39 and the “area under the absorbance curve” value (Vero cells [2]; 1 h, dye 100 µM (NR 173 µM)) was 14.3. The “area under the absorbance curve” value (Vero cells [2]; 2 h, dye 100 µM) was 17.3, the “area under the absorbance curve” value (Vero cells [2]; 3 h, dye 100 µM) was 19.9 and the “area under the absorbance curve” value (Vero cells [2]; 4 h, dye 100 µM (NR 173 µM)) was 20.5. For the same molecule, the “pattern of dye accumulation in cells” value (Vero cells [3]) was “stained uniformly” and the “localisation of dye in cells” value (Vero cells [3]) was “found in the cell cytoplasm”.

For `Cc1cc2nc3ccc(N(C)C)cc3nc2cc1N.Cl` [NR, 3-amino-7-dimethylamino-2-methylphenazine hydrochloride], the “area under the absorbance curve” value (Vero cells [2]; 1 h, dye 100 µM (NR 173 µM)) was 5.5, the “area under the absorbance curve” value (Vero cells [2]; 4 h, dye 100 µM (NR 173 µM)) was 10.96 and the “localisation of dye in cells” value (Vero cells [3]) was “accumulated mostly in the cell cytoplasm”.

For `Cc1cc2nc3ccc(N(C)C)cc3[s+]c2cc1N.[Cl-]` [TBO, 3-amino-7-(dimethylamino)-2-methylphenothiazin-5-ium chloride], the “concentration up to which absorbance/concentration correlation was observed” value (Vero cells [1]; 3 h) was ≤ 62 µM, the “minimum limit for detection of dye” value (Vero cells [1]) was > 15.6 µM and > 31.2 µM and the “absorbance of extracted dye” value (Vero cells [1]; [4]) was 0.35. The “absorbance of extracted dye” value (Vero cells [1]; dye at 125 µM, 3 h) was 0.29, the “area under the absorbance curve” value (Vero cells [2]; 1 h, dye 100 µM (NR 173 µM)) was 10.63 and the “area under the absorbance curve” value (Vero cells [2]; 2 h, dye 100 µM) was 11.87. The “area under the absorbance curve” value (Vero cells [2]; 3 h, dye 100 µM) was 13.58, the “area under the absorbance curve” value (Vero cells [2]; 4 h, dye 100 µM (NR 173 µM)) was 13.97 and the “pattern of dye accumulation in cells” value (Vero cells [3]) was “heterogeneous accumulation pattern”. For the same molecule, the “localisation of dye in cells” value (Vero cells [3]) was “affinity to large nucleoli”.

“And” between values parts separate entries of the source, which are not always exact repeats. Identical values can stand only once.
